PubChem BioAssay AID743121 – NCATS – 2013
The deposit covers about 26,000 reagents; shown is an unselected part. In the full data, 167 (0.63%) got an active call. 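Calls are per gene from RSA p-values that are not deposited; an individual active-marked siRNA can sensitise only weakly.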 Unmarked entries are inactive. The numbers tell different reagents against one gene apart. Further read-outs or replicates are left out here.

- Assay: 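Knock-downs that sensitise breast cancer cells to camptothecin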 (primary screen)
- Cell system: MDA-MB-231 cells, a human breast cancer line
- Reagent: single siRNA against human genes, 20 nM siRNA (0.8 pmol per well)
- Timing: 120 h (drug added 48 h after transfection, read 72 h later)
- Challenge: camptothecin 20 nM (about EC30) for 72 h; vehicle 0.1% DMSO in parallel plates
- Measured: 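CellTiter-Glo ATP signal, scaled to control siRNA as percent viability; sensitisation given as log2 of untreated divided by camptothecin-treated viability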
- Reading the numbers: log2 vehicle/camptothecin viability: higher = stronger sensitisation to camptothecin; viability with camptothecin: higher = more viable cells
- Hit rule: 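Active genes have an RSA gene-level p-value below 0.001, computed from the ratios of their separate siRNAs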

| gene | reagent | log2 vehicle/camptothecin viability | viability with camptothecin (% of control) |
| --- | --- | --- | --- |
| PSMC3IP | 1 | 0.785 | 14.3 |
| PSMC3IP | 2 | -0.282 | 97.7 |
| PSMC3IP | 3 | -0.191 | 93.2 |
| PSMC3IP | 4 | 0.28 | 71.9 |
| CRYZ | 1 | 0.0121 | 120 |
| CRYZ | 2 | 0.218 | 63.1 |
| CRYZ | 3 | -0.00812 | 39.3 |
| CDK3 | 1 | 0.373 | 57.9 |
| CDK3 | 2 | -0.226 | 41.5 |
| CDK3 | 3 | 0.818 | 50.8 |
| CDK3 | 4 | 0.0754 | 105 |
| CLEC1B | 1 | 0.141 | 47.7 |
| CLEC1B | 2 | 0.914 | 17.6 |
| CLEC1B | 3 | 0.121 | 64.1 |
| CLEC1B | 4 | -0.251 | 110 |
| WNK1 | 1 | 0.0147 | 35.1 |
| WNK1 | 2 | 0.408 | 63.7 |
| WNK1 | 3 | 0.0663 | 64 |
| WNK1 | 4 | -0.359 | 76 |
| MUC3A | 1 | -0.575 | 77.9 |
| MUC3A | 2 | -0.596 | 86.8 |
| MUC3A | 3 | -0.258 | 92.8 |
| NLGN4Y | 1 | -0.376 | 67.1 |
| NLGN4Y | 2 | -0.368 | 97.1 |
| NLGN4Y | 3 | -0.379 | 83.8 |
| NLGN4Y | 4 | -0.369 | 81.6 |
| UBB | 1 | 0.819 | 7.18 |
| UBB | 2 | -0.423 | 75.3 |
| UBB | 3 | -0.275 | 104 |
| CDX2 | 1 | 0.159 | 89.1 |
| CDX2 | 2 | -0.328 | 85.9 |
| CDX2 | 3 | -0.286 | 82 |
| OLFML2B | 1 | 0.164 | 85.4 |
| OLFML2B | 2 | 0.119 | 81 |
| OLFML2B | 3 | -0.483 | 62.2 |
| OLFML2B | 4 | -0.301 | 98.7 |
| RBX1 | 1 | -0.151 | 53.9 |
| RBX1 | 2 | -0.416 | 93 |
| RBX1 | 3 | -0.19 | 76.2 |
| RBX1 | 4 | -0.561 | 75.5 |

Just “viability with camptothecin (% of control)”, for 14 of the entries above:
NLGN4Y #2: 97.1
NLGN4Y #3: 83.8
NLGN4Y #4: 81.6
UBB #1: 7.18
UBB #2: 75.3
UBB #3: 104
CDX2 #1: 89.1
CDX2 #2: 85.9
CDX2 #3: 82
OLFML2B #1: 85.4
OLFML2B #2: 81
OLFML2B #3: 62.2
OLFML2B #4: 98.7
RBX1 #1: 53.9

More records follow.
| gene | reagent | log2 vehicle/camptothecin viability | viability with camptothecin (% of control) |
| --- | --- | --- | --- |
| SNRPG | 1 | -0.369 | 59.4 |
| SNRPG | 2 | -0.253 | 37.9 |
| SNRPG | 3 | -0.671 | 41 |
| IL9 | 1 | -0.288 | 101 |
| IL9 | 2 | -0.105 | 56.5 |
| IL9 | 3 | -0.19 | 95.1 |
| FBXL15 | 1 | -0.57 | 89.2 |
| FBXL15 | 2 | -0.0681 | 34.8 |
| FBXL15 | 3 | -0.338 | 65.3 |
| FBXL15 | 4 | 0.472 | 29 |
| CPE | 1 | -0.61 | 105 |
| CPE | 2 | 0.0219 | 59 |
| CPE | 3 | -0.308 | 120 |
| CPE | 4 | -0.371 | 47.3 |
| HCRTR2 | 1 | -0.198 | 115 |
| HCRTR2 | 2 | -0.353 | 98.5 |
| HCRTR2 | 3 | -0.192 | 100 |
| HCRTR2 | 4 | -0.162 | 85.1 |
| PFKM | 1 | -0.34 | 70.8 |
| PFKM | 2 | 0.026 | 23.3 |
| PFKM | 3 | -0.342 | 66.5 |
| PFKM | 4 | -0.274 | 86.9 |
| CST3 | 1 | -0.325 | 60.9 |
| CST3 | 2 | -0.986 | 100 |
| CST3 | 3 | -0.498 | 103 |
| MYD88 | 1 | -0.275 | 92.8 |
| MYD88 | 2 | -0.593 | 103 |
| MYD88 | 3 | 0.192 | 71.1 |
| MYD88 | 4 | 0.173 | 44.5 |
| CAPN9 | 1 | -0.0366 | 91.6 |
| CAPN9 | 2 | -0.27 | 86.9 |
| CAPN9 | 3 | -0.441 | 54.5 |
| CAPN9 | 4 | 0.837 | 26.3 |
| PRKAB1 | 1 | -0.156 | 108 |
| PRKAB1 | 2 | 0.128 | 104 |
| PRKAB1 | 3 | 0.115 | 71.3 |
| PRKAB1 | 4 | -0.484 | 36.3 |
| PLCL2 | 1 | 0.71 | 46.9 |
| PLCL2 | 2 | -0.0384 | 93.8 |
| PLCL2 | 3 | -0.212 | 85.9 |
| PLCL2 | 4 | -0.0485 | 93 |
| TIMM50 | 1 | -0.447 | 75.7 |
| TIMM50 | 2 | -0.459 | 55.9 |
| TIMM50 | 3 | -0.29 | 60.4 |
| TIMM50 | 4 | -0.0828 | 80.1 |
| SOCS3 | 1 | -0.407 | 55.5 |
| SOCS3 | 2 | -0.168 | 87.4 |
| SOCS3 | 3 | -0.292 | 73.2 |
| SOCS3 | 4 | -0.408 | 22.9 |
